Source: patent US11407977B2, “Tissue scaffolds for electrically excitable cells” (Innovative Surface Technologies, Inc., priority 2013, dated 2022)
At least one compound was matched to its structure with a doubt left.

Test system: bioartificial rat hippocampal brain slice
Test: Evoked fEPSP field recording on bioartificial tissue scaffold with antagonist cocktail
Type: cell-based
Conditions: cocktail in ACSF: CNQX 10 microM, APV 50 microM, Bicuculline Methbromide 50 microM; 10 minute wash-in; 28 d.i.v.; drug-subtracted average fEPSP, FIG. 12
Experimental: Dissociated hippocampal cells were seeded on open-field scaffolds and grown in an incubator as described in Example 9, to generate bioartificial open field hippocampal brain tissue “slices.” FIG. 11 is a photo micrograph of the bioartificial tissue, on its scaffold, in a conventional field recording chamber.
Bioartificial tissue scaffolds were removed from the incubator for electrophysiological testing between 14-90 days in vitro (d.i.v.). For electrophysiological field recordings, bioartificial tissue scaffolds were suspended on a nylon mesh in a small (350-400 μl) recording chamber (FIG. 11) and perfused with artificial cerebrospinal fluid (ACSF) at a rate of 2.5-3 ml/min (submerged mode). The temperature in the recording chamber was held at 30-32° C. Recordings were made using an ACSF-filled glass micropipette (2-4 MΩ) positioned as shown (FIG. 6) and connected via a head stage to the amplifier (A-M Systems model 1800). Signals were digitized at 100 kHz using a Digidata 1550 series interface (Axon instruments) running ClampEx 10.4. Synaptic responses were evoked by electrical stimulation using a bipolar tungsten electrode (tip spacing, 140 micrometers; Frederick Haer Company) and a 100 microsecond square wave test pulse was delivered at intervals of twenty seconds (FIG. 6). Stimulus-response relationship was established over the range of 0-1000 microV. […]

Compound: CN1CCc2cc3c(cc2[C@H]1[C@@H]1OC(=O)c2c1ccc1c2OCO1)OCO3 [Bicuculline Methbromide]
- effect on evoked fEPSP: sensitivity of the bioartificial rat hippocampal brain slice
